Laboratory results published in PubChem BioAssay AID248 (DTP/NCI, 2004).
The list does not hold the whole screen: it gathers tests that were run many times, whatever their T/C, doses with no T/C, and many T/C values between a quarter and a half above the control. Other doses and runs of a compound stand elsewhere. T/C: endpoint of the treated group in % of that of the vehicle group. Some doses have a count of surviving animals in place of a T/C: the source holds a T/C of zero for them, seemingly a mark for toxic or unscored doses. Some doses without a T/C left all or most animals alive at the check, yet need not have been tolerated: survival well below the control is almost never listed, so the zero probably covers shortened survival too. Survivors were counted at the toxicity check, usually on the fifth day, unless a day is given; later deaths do not show. Schedule codes are those of the source, read here as Q, the interval in days (D) or hours (H), X, the number of doses. Some schedule codes hold Z or #, which are not explained here. Where survival is the endpoint, the PubChem record calls one and a half times the control and up active, and a quarter to a half above the control has no call in these data; cut-offs in other NCI protocols can differ.

System: L1210 leukemia ip in BDF1 mice, survival T/C
Assay: NCI In Vivo Anticancer Drug Screen. Data for tumor model L1210 Leukemia (intraperitoneal) in B6D2F1 (BDF1) mice
Conditions: T/C endpoint: mean survival time, higher T/C = longer survival
[1] = dose: 100.0 mg/kg/injection, schedule: Q04DX003 (ip), vehicle: Klucel (hydroxypropylcellulose) (HPC)
[2] = dose: 200.0 mg/kg/injection, schedule: Q04DX003 (ip), vehicle: Klucel (hydroxypropylcellulose) (HPC)
[3] = dose: 400.0 mg/kg/injection, schedule: Q04DX003 (ip), vehicle: Klucel (hydroxypropylcellulose) (HPC)
[4] = dose: 200.0 mg/kg/injection, schedule: Q04DX003 (ip), vehicle: saline with Tween-80
[5] = dose: 400.0 mg/kg/injection, schedule: Q04DX003 (ip), vehicle: saline with Tween-80
[6] = dose: 400.0 mg/kg/injection, schedule: Q01DX001 (ip), vehicle: Klucel (hydroxypropylcellulose) (HPC)
[7] = dose: 200.0 mg/kg/injection, schedule: Q01DX009 (ip), vehicle: saline

Compound: COC(=O)C(N)Cc1ccc(O)c(N(CCCl)CCCl)c1 (stereo not given)
- T/C (dose: 0.02 mg/kg/injection, schedule: Q01DX009 (ip), vehicle: saline): 125 % of control
- T/C (dose: 0.05 mg/kg/injection, schedule: Q01DX009 (ip), vehicle: saline): 134 % of control
- T/C (dose: 0.1 mg/kg/injection, schedule: Q01DX009 (ip), vehicle: saline): 149 % of control
- survivor count (dose: 2.0 mg/kg/injection, schedule: Q01DX009 (ip), vehicle: saline): 6 of 6
- survivor count (dose: 4.4 mg/kg/injection, schedule: Q01DX009 (ip), vehicle: saline): 5 of 6
- survivor count (dose: 6.6 mg/kg/injection, schedule: Q01DX009 (ip), vehicle: saline): 4 of 6
- survivor count (dose: 10.0 mg/kg/injection, schedule: Q01DX009 (ip), vehicle: saline): 3 of 6
- survivor count (dose: 15.0 mg/kg/injection, schedule: Q01DX001 (ip), vehicle: saline): 2 of 6
- survivor count (dose: 15.0 mg/kg/injection, schedule: Q01DX009 (ip), vehicle: saline): 1 of 6
- survivor count (dose: 30.0 mg/kg/injection, schedule: Q01DX001 (ip), vehicle: saline): 1 of 6
- survivor count (dose: 60.0 mg/kg/injection, schedule: Q01DX001 (ip), vehicle: saline): 0 of 6
- survivor count (dose: 75.0 mg/kg/injection, schedule: Q01DX001 (sc), vehicle: saline): 0 of 6
- survivor count (dose: 150.0 mg/kg/injection, schedule: Q01DX001 (sc), vehicle: saline): 0 of 6
- survivor count (dose: 300.0 mg/kg/injection, schedule: Q01DX001 (sc), vehicle: saline): 0 of 6

Compound: Cc1ccc2c(c1)CC(C)([CH2][Hg][Cl])O2 (stereo not given)
- survivor count (dose: 12.0 mg/kg/injection, schedule: Q01DX009 (ip), vehicle: Klucel (hydroxypropylcellulose) (HPC)): 6 of 6
- survivor count (dose: 12.5 mg/kg/injection, schedule: Q04DX003 (ip), vehicle: Klucel (hydroxypropylcellulose) (HPC)): 3 of 6
- survivor count (dose: 25.0 mg/kg/injection, schedule: Q04DX003 (ip), vehicle: Klucel (hydroxypropylcellulose) (HPC)): 0 of 6
- survivor count (dose: 50.0 mg/kg/injection, schedule: Q04DX003 (ip), vehicle: Klucel (hydroxypropylcellulose) (HPC)): 0 of 6
- survivor count [1]: 0 of 6
- survivor count [2]: 0 of 6
- survivor count [3]: 0 of 6

Compound: CO[C](=O)[Hg][O]C(C)=O
- survivor count (dose: 12.5 mg/kg/injection, schedule: Q04DX002 (ip), vehicle: Klucel (hydroxypropylcellulose) (HPC)): 3 of 3
- survivor count (dose: 25.0 mg/kg/injection, schedule: Q04DX002 (ip), vehicle: Klucel (hydroxypropylcellulose) (HPC)): 0 of 3
- survivor count (dose: 50.0 mg/kg/injection, schedule: Q04DX002 (ip), vehicle: Klucel (hydroxypropylcellulose) (HPC)): 0 of 3
- survivor count (dose: 100.0 mg/kg/injection, schedule: Q04DX002 (ip), vehicle: Klucel (hydroxypropylcellulose) (HPC)): 0 of 3
- survivor count (dose: 200.0 mg/kg/injection, schedule: Q04DX002 (ip), vehicle: Klucel (hydroxypropylcellulose) (HPC)): 0 of 3
- survivor count (dose: 400.0 mg/kg/injection, schedule: Q04DX002 (ip), vehicle: Klucel (hydroxypropylcellulose) (HPC)): 0 of 3

Compound: O=C=NCCCl
- survivor count (dose: 50.0 mg/kg/injection, schedule: Q01DX001 (ip), vehicle: propolene glycol): 2 of 6
- survivor count (dose: 75.0 mg/kg/injection, schedule: Q01DX001 (ip), vehicle: propolene glycol): 0 of 6
- survivor count (dose: 100.0 mg/kg/injection, schedule: Q01DX001 (ip), vehicle: propolene glycol): 0 of 6
- survivor count (dose: 150.0 mg/kg/injection, schedule: Q01DX001 (ip), vehicle: propolene glycol): 0 of 6
- survivor count (dose: 200.0 mg/kg/injection, schedule: Q01DX001 (ip), vehicle: propolene glycol): 0 of 6
- survivor count (dose: 200.0 mg/kg/injection, schedule: Q04DX003 (sc), vehicle: olive oil, sesame oil, peanut oil): 2 of 6
- survivor count (dose: 400.0 mg/kg/injection, schedule: Q04DX003 (sc), vehicle: olive oil, sesame oil, peanut oil): 0 of 6
- survivor count (dose: 500.0 mg/kg/injection, schedule: Q01DX001 (ip), vehicle: propolene glycol): 0 of 6
- survivor count (dose: 1000.0 mg/kg/injection, schedule: Q01DX001 (ip), vehicle: propolene glycol): 0 of 6
- survivor count (dose: 1500.0 mg/kg/injection, schedule: Q01DX001 (ip), vehicle: propolene glycol): 0 of 6

Compound: Cn1c(=O)c2ccccc2c2cc([N+](=O)[O-])ccc21
- survivor count [3]: 6 of 6

Compound: Cc1ccc(C(=O)C[S+](C)C)c(C)c1
- survivor count (dose: 100.0 mg/kg/injection, schedule: Q01DX009 (ip), vehicle: saline): 2 of 6
- survivor count [4]: 1 of 6
- survivor count [5]: 2 of 6

Compound: CN=C(N)N/N=C/C(C)=N/NC(N)=NC
- survivor count (dose: 240.0 mg/kg/injection, schedule: Q01DX Z (ip), vehicle: saline): 0 of 6
- survivor count (dose: 480.0 mg/kg/injection, schedule: Q01DX Z (ip), vehicle: saline): 0 of 6

Compound: CN1CCC2(CC1)C(=O)N(CC1COc3ccccc3O1)C(=O)C2c1ccccc1 (stereo not given)
- survivor count (dose: 200.0 mg/kg/injection, schedule: Q01DX001 (ip), vehicle: Klucel (hydroxypropylcellulose) (HPC)): 0 of 6
- survivor count [6]: 0 of 6

Compound: Nc1nc(-c2ccccc2N=NN2CCN(N=Nc3ccccc3-c3nc(N)c4ccccc4n3)CC2)nc2ccccc12
- survivor count [3]: 3 of 6

Compound: CN(C)CCC(=O)c1ccc(-c2ccccc2)cc1
- survivor count [3]: 0 of 6

Compound: CCCCCCCCCCN1C(=O)C(Cl)=C(Cl)C1=O
- survivor count (dose: 100.0 mg/kg/injection, schedule: Q04DX003 (ip), vehicle: saline with Tween-80): 0 of 6
- survivor count [4]: 0 of 6
- survivor count [5]: 0 of 6

Compound: O=Cc1ccc(O)c(CN2CCCCC2)c1
- survivor count (dose: 100.0 mg/kg/injection, schedule: Q04DX003 (ip), vehicle: saline sonified): 0 of 6
- survivor count (dose: 200.0 mg/kg/injection, schedule: Q04DX003 (ip), vehicle: saline sonified): 0 of 6
- survivor count (dose: 400.0 mg/kg/injection, schedule: Q04DX003 (ip), vehicle: saline sonified): 0 of 6

Compound: O=C1C=CC(=Nc2cc(Cl)c(O)c(Cl)c2)C(Cl)=C1
- survivor count (dose: 50.0 mg/kg/injection, schedule: Q01DX009 (ip), vehicle: Klucel (hydroxypropylcellulose) (HPC)): 0 of 3
- survivor count (dose: 100.0 mg/kg/injection, schedule: Q01DX009 (ip), vehicle: Klucel (hydroxypropylcellulose) (HPC)): 0 of 3
- survivor count (dose: 200.0 mg/kg/injection, schedule: Q01DX009 (ip), vehicle: Klucel (hydroxypropylcellulose) (HPC)): 0 of 3

Compound: C=C(C)C1CC=C(C)CC1 (stereo not given)
- survivor count [7]: 0 of 6
- survivor count (dose: 400.0 mg/kg/injection, schedule: Q01DX009 (ip), vehicle: saline): 2 of 6

Compound: CCCCNc1nc2ccccc2[nH]1
- survivor count (dose: 75.0 mg/kg/injection, schedule: Q01DX001 (ip), vehicle: saline): 0 of 6
- survivor count (dose: 150.0 mg/kg/injection, schedule: Q01DX001 (ip), vehicle: saline): 0 of 6
- survivor count (dose: 300.0 mg/kg/injection, schedule: Q01DX001 (ip), vehicle: saline): 1 of 6

Compound: CN(C)CCCC1C2CCC(C2)C1C#N (stereo not given)
- survivor count [1]: 2 of 6
- survivor count [2]: 0 of 6
- survivor count [3]: 0 of 6

Compound: CCOC(=O)/C=C(\CC(=O)OCC)Nc1ccc(OC)cc1
- survivor count [7]: 6 of 6

Compound: CN(C)c1ccc(C=NCCCNC2CCCCC2)cc1
- survivor count (dose: 100.0 mg/kg/injection, schedule: Q04DX003 (ip), vehicle: other): 5 of 6
- survivor count (dose: 200.0 mg/kg/injection, schedule: Q01DX001 (ip), vehicle: saline): 2 of 6
- survivor count (dose: 400.0 mg/kg/injection, schedule: Q01DX001 (ip), vehicle: saline): 0 of 6

Compound: Cc1cc2no[n+]([O-])c2cc1C
- survivor count [6]: 1 of 6

Compound: CCCCCCCCCCCCCCCCSCCCCCCCCCCCCCCCC
- survivor count (dose: 400.0 mg/kg/injection, schedule: Q01DX009 (ip), vehicle: saline with Tween-80): 4 of 6
